Experimental data: patent US20180201937A1
These are yes or no findings as the source states them, for the method shown. For some assays here: Binding seen in cells or lysates may run through a third protein. Some entries that bind do so weakly or less than the wild type.

Amino acid sequences for entries named in this document (tags omitted).
UniProt O43432: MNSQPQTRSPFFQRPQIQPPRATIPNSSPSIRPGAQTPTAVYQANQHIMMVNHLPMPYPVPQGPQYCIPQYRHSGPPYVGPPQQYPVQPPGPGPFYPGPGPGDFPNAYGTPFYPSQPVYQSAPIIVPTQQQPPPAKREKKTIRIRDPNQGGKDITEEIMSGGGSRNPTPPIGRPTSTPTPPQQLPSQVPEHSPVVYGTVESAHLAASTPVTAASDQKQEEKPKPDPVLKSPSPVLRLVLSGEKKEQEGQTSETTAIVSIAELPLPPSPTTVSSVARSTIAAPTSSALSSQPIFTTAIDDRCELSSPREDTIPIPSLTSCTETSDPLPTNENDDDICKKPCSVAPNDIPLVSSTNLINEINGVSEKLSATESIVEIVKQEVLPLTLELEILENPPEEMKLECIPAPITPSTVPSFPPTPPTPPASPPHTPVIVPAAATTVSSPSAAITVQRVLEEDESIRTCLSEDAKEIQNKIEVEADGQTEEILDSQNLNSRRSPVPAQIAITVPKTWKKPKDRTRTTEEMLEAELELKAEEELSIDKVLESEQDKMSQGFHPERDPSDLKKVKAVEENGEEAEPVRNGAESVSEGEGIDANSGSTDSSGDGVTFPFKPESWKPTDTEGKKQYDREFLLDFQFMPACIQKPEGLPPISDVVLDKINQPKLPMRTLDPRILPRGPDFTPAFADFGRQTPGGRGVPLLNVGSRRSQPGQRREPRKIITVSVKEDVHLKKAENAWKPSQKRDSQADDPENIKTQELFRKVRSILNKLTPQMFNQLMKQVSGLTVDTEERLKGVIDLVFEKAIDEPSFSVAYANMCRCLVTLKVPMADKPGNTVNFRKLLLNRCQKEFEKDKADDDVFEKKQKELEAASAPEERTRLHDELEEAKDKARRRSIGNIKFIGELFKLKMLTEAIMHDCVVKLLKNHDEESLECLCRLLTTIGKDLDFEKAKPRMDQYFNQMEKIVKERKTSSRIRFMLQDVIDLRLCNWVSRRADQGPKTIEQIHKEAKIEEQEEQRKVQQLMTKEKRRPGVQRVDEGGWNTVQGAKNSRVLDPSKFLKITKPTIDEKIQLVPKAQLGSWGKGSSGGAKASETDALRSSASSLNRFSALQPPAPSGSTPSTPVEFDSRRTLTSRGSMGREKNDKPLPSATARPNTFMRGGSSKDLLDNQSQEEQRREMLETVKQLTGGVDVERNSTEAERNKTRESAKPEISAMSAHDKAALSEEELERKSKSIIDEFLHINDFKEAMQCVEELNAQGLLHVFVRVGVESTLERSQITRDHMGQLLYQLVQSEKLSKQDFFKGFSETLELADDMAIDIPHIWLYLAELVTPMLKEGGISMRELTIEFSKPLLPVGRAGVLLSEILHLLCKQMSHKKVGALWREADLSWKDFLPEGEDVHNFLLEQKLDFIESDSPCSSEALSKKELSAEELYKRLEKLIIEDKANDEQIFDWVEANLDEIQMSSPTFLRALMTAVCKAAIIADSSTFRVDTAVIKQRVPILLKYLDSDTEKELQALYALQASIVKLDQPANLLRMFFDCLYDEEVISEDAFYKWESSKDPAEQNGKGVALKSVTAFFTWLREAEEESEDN
UniProt Q14240: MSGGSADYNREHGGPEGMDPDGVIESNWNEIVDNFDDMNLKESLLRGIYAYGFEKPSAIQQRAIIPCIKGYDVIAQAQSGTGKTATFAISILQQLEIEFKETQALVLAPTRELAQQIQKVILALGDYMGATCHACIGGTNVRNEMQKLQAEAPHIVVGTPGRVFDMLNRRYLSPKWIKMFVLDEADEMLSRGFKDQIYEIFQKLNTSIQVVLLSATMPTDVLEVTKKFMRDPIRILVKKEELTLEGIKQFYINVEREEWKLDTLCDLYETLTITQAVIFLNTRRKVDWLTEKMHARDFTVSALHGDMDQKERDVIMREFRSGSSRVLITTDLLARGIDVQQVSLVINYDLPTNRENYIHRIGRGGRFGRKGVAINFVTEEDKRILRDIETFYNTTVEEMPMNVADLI

What was measured:
[1] = target: eukaryotic initiation factor eIF4GII, expressed from pcDNA3-HA-eIF4GII (UniProt O43432); test: immunoprecipitation from HEK293 cells co-transfected with eIF4AII and eIF4GII vectors, using eIF4AII- or eIF4GII-specific antibody; Western blot
[2] = target: eukaryotic initiation factor eIF4GII, expressed from pcDNA3-HA-eIF4GII (UniProt O43432); test: coimmunoprecipitation from HEK293 cells co-transfected with eIF4AII and eIF4GII vectors, using eIF4AII- or eIF4GII-specific antibody or control IgG; Western blot

- binding [1]: binds
- binding [2]: binds
Substance: eukaryotic initiation factor eIF4AII (human), expressed from pcDNA3.1-HisXpress-eIF4AII (from UniProt Q14240 1-407)
